The results in this text go back to PubChem BioAssay AID2685 (National Center for Advancing Translational Sciences (NCATS), 2010).

A short description of this experiment: qHTS Assay for Lipid Storage Modulators in Drosophila S3 Cells.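 For cell number change: cells counted by Cell Tracker Red CMTPX staining in the red channel.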 The following applies: BODIPY lipid droplet fluorescence, 18-24 h; for cell number change: measured here: cell count max response, cells fed with added oleic acid. An outline of the steps:
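Laser-scanning cytometry quantifies lipid droplet accumulation (500–530 nm total intensity; droplet/cell object ratio) in oleic acid-fed (400 uM added) Drosophila S3 cells treated with a concentration series. 20 uM Triacsin C defined 100% inhibition.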
(Quantitative high-throughput screening tests each substance at several concentrations.)

Setting [1] is: measured here: cell number channel AC50, cells fed with added oleic acid.
Where [2] appears, read: measured here: lipid fluorescence (Fed channel) AC50, cells fed with added oleic acid.

Structures are written as SMILES. Some of the results follow. Further columns of the screen follow, without active or inactive calls. The list favours compounds with an active or inconclusive main result. Words in brackets tell the shape of the fitted curve; partial curves, single points and poor fits give uncertain potencies.

As to `Cc1ccccc1-c1nc(C#N)c(NCc2ccco2)o1`, the cell number change is -14%.
As usually defined, the AC50 is the concentration at which the activity in the assay is half-maximal. On to `CCn1nnc(-c2ccccc2NC(=O)c2ccc(-n3cnnn3)cc2)n1`, for which the AC50 under setting [1] was 0.651 µM [rising, partial curve] and the AC50 under setting [2] is 0.82 µM [rising, partial curve].
For the compound `COC(=O)c1ccsc1NC(=O)CSc1nnnn1-c1ccccc1SC`, the cell number change was 151%. Besides, the AC50 under setting [1] was 1.64 µM [rising, full curve]. Also, the AC50 under setting [2] was 29.1 µM [rising, single point].
Consider `O=C(Nc1ccccc1C(=O)Nc1ccc2c(c1)OCO2)c1ccco1`, for which the cell number change was -0.128%. The AC50 under setting [2] was 0.58 µM [rising, single point].
Turning to `COc1ccccc1C(=O)COC(=O)Cc1n[nH]c(=O)c2ccccc12`, the cell number change is -14.5%.
As for `COc1ccccc1C(=O)Nc1ccc2c(c1)nc1n2CCSC1`, the AC50 under setting [2] is 0.164 µM [rising, full curve, poor fit].
For `CN1CCN(NC(=O)c2cc(Br)ccc2Cl)CC1`, the cell number change was -10.1%. Besides, the AC50 under setting [2] was 0.164 µM [falling, full curve].
Take `CCC(Cc1ccccc1)NS(=O)(=O)c1ccc2c(c1)NC(=O)C(C)S2` (centres undefined): the AC50 under setting [2] was 29.1 µM [falling, single point].
Regarding `Cn1cc(S(=O)(=O)NC2CCCCCC2)c(=O)n(C)c1=O`, the cell number change came to 6.74%. Further, under setting [1], the AC50 is 4.11 µM [rising, partial curve, poor fit].
Turning to `COc1ccc(CCNC2CCN(C)CC2)cc1OC`, the cell number change turned out to be 2.64%. Further, the AC50 under setting [2] was 5.8 µM [falling, partial curve].
On to `CCOC(=O)N1CCN(C/C(C)=C/c2ccccc2)CC1`, for which the cell number change was 39%. Further, the AC50 under setting [1] was 29.1 µM [rising, single point].
`CCc1ccc(OCC(O)CN2CCN(c3ccc(OC)cc3)CC2)cc1` (centres undefined): the cell number change is -0.37%. Further, under setting [2], the AC50 was 32.6 µM [falling, single point].
As for `CC(=O)NC1CC2CCCC(C1)N2S(=O)(=O)c1ccccc1` (centres undefined), the cell number change was 33.1%. The AC50 under setting [1] was 25.9 µM [rising, single point]. The AC50 under setting [2] is 0.231 µM [rising, full curve, poor fit].
Regarding `CCCCCOc1ccc(NC(=O)C(=O)NCCCn2ccnc2)cc1`, the cell number change was determined as 7.82%. Further, the AC50 under setting [2] was 2.31 µM [falling, partial curve, poor fit].
Regarding `CC(C)(C)NS(=O)(=O)c1cc(C(=O)O)ccc1Cl`, the cell number change is -48.2%. For the same compound, under setting [1], the AC50 was 29.1 µM [falling, single point]. Under setting [2], the AC50 was 29.1 µM [falling, single point].
Consider `COC(=O)c1cccc(NC(=O)C2CCCN2C(=O)c2cccs2)c1` (centres undefined), for which the cell number change is -99.1%. Under setting [1], the AC50 was 29.1 µM [falling, single point].
`CC(C)(C)c1ccc(C(=O)N2CCN(c3nc4ccccc4o3)CC2)cc1`: the cell number change is -32.1%. The AC50 under setting [1] was 9.2 µM [falling, partial curve]. Further, under setting [2], the AC50 was 0.92 µM [falling, full curve, poor fit].
`COc1ccc(/C=N/NC(=O)c2ccc(COc3cccc4cccnc34)cc2)cc1OC`: the AC50 under setting [2] was 0.146 µM [rising, partial curve, poor fit].
In the case of `O=[N+]([O-])c1ccc(Cl)c(/C=N/N2CCN(Cc3ccccc3Cl)CC2)c1`, the cell number change is -11.1%. Also, the AC50 under setting [2] was 0.259 µM [rising, full curve, poor fit].
In the case of `COc1ccccc1Sc1ccccc1/C=N/NC(N)=O`, the cell number change worked out at 18.6%.
With `Cn1c(CCCOc2ccc(Cl)cc2Cl)nnc1SCC(=O)Nc1nccs1`, the cell number change was -25.3%. Further, the AC50 under setting [2] is 29.1 µM [falling, partial curve].
`Cc1n[nH]c(C)c1CCCOc1ccccc1`: the cell number change is 75.4%. The AC50 under setting [1] is 3.66 µM [rising, full curve]. Besides, the AC50 under setting [2] is 13 µM [rising, partial curve].
With `COc1ccc(C)cc1NC(=O)C1CCCN1S(=O)(=O)c1ccc2c(c1)CCC(=O)N2` (centres undefined), the cell number change was -1.39%. Also, under setting [2], the AC50 was 0.13 µM [rising, full curve, poor fit].
On to `Cc1c(N(C)C(=O)COc2ccc3ccccc3c2)c(=O)n(-c2ccccc2)n1C`, for which the cell number change was found to be 52.4%. In addition, the AC50 under setting [1] was 0.082 µM [rising, full curve, poor fit].
On to `Cc1ccc(-c2nc3ccccc3n3c(C)nnc23)cc1`, for which the cell number change is -90.6%. Besides, the AC50 under setting [1] was 29.1 µM [falling, single point]. Further, the concentration at half-maximal activity (AC50) under setting [2] is 1.84 µM [rising, single point].
As to `COc1cccc(N2C(=O)c3cccnc3C2O)c1` (centres undefined), the cell number change is -9.33%.
As for `COc1ccccc1CCNS(=O)(=O)CCNC(=O)c1ccc2c(c1)OCO2`, the cell number change was -8.33%. Also, under setting [2], the AC50 was 0.092 µM [falling, full curve, poor fit].
On to `O=c1c(C/C=C/c2ccccc2)c(O)ccn1CCc1c[nH]c2ccccc12`, for which the cell number change is -62%. Besides, the AC50 under setting [1] was 11.2 µM [falling, partial curve]. Under setting [2], the half-maximal activity concentration (AC50) was 15.8 µM [falling, partial curve].
On to `CCOc1ccc2cc(C#N)c(SCC(=O)N3CCC(C)CC3)nc2c1`, for which the cell number change was 37.5%. Moreover, the AC50 under setting [1] is 3.26 µM [rising, single point]. Under setting [2], the AC50 is 3.66 µM [rising, partial curve].
With `COc1ccccc1CNC(=O)C1CCN(c2ncnc3c2nc2n3CCCCC2)CC1`, the AC50 under setting [2] is 1.03 µM [rising, full curve, poor fit].
Consider `CCCc1nc2sc(C(=O)OCC)c(N)c2c2c1COC(C)(C)C2`, for which the cell number change is 9.85%. Further, under setting [1], the AC50 is 0.184 µM [rising, partial curve]. Also, the AC50 under setting [2] is 6.51 µM [rising, single point].
Consider `C=C(C)C1Cc2c(C)nn(-c3nc(C)cc(C)n3)c2C1` (centres undefined), for which the cell number change is -9.33%. The AC50 under setting [2] is 0.259 µM [rising, partial curve, poor fit].
Consider `Cc1ccc(S(=O)(=O)/N=S(\C)CC2CC2(Cl)Cl)cc1` (centres undefined), for which the cell number change came to 23.9%. Also, the AC50 under setting [2] was 0.58 µM [rising, single point].
Consider `CN1CCCN(C(=O)CNC(=O)Cc2ccccc2)CC1`, for which the cell number change came to 33.4%. Besides, under setting [1], the AC50 is 29.1 µM [rising, single point].
Regarding `C/C(=N\NC(=S)Nc1ccc(F)cc1)C1CC1`, under setting [2], the AC50 was 0.731 µM [rising, single point].
Turning to `Cc1ccc(NC(=O)C2CCN(S(=O)(=O)c3cccs3)CC2)cc1C`, the cell number change is -36.1%. Besides, the AC50 under setting [1] was 16.4 µM [falling, single point]. Under setting [2], the AC50 was 20.6 µM [falling, single point].
As to `Cc1cc(C)cc(C(=O)NC(CC(N)=O)c2ccc(N3CCN(c4ccccc4)CC3)c([N+](=O)[O-])c2)c1` (centres undefined), the cell number change came out at 16.8%.
